The supplement of paper PMC10849652
This is one part of the list.

By UniProt entry, the sequences of proteins in these tests, tags left out. Where a name states a change or a piece, a line headed by the entry shows the natural chain unless it says otherwise.
UniProt P04921: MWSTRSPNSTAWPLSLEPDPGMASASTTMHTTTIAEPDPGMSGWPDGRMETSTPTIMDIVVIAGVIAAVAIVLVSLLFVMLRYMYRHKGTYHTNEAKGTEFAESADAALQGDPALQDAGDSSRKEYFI
UniProt P78417: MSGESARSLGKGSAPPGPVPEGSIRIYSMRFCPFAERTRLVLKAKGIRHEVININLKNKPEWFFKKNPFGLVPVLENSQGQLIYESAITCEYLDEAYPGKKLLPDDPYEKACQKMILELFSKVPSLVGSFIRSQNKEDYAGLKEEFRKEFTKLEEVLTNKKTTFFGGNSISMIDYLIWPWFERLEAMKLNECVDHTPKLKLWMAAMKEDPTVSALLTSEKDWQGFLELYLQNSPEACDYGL
UniProt Q68CZ6: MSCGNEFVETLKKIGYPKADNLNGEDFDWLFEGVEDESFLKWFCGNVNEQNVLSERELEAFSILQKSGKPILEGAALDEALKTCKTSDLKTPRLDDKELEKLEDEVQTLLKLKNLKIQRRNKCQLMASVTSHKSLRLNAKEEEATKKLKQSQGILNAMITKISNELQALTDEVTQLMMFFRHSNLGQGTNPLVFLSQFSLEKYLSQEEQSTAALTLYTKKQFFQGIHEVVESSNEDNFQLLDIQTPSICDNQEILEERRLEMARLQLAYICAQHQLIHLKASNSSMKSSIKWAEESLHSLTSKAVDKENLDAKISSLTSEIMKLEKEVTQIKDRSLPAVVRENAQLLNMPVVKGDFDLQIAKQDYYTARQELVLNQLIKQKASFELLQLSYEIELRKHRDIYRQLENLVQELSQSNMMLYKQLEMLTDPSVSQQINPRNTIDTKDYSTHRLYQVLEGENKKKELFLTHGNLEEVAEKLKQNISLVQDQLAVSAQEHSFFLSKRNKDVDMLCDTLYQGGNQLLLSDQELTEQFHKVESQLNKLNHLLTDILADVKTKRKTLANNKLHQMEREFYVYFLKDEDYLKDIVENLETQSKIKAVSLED
UniProt Q9P035: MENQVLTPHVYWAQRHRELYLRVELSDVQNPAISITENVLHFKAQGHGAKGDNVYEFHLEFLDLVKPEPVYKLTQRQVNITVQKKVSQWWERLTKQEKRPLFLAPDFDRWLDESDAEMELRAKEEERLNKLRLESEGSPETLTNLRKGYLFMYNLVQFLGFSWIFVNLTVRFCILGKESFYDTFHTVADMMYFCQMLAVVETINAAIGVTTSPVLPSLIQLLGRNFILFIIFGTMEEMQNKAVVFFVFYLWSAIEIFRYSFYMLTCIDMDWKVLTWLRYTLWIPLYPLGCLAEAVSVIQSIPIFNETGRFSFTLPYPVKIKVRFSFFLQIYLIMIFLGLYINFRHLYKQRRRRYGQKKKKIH
UniProt P14317: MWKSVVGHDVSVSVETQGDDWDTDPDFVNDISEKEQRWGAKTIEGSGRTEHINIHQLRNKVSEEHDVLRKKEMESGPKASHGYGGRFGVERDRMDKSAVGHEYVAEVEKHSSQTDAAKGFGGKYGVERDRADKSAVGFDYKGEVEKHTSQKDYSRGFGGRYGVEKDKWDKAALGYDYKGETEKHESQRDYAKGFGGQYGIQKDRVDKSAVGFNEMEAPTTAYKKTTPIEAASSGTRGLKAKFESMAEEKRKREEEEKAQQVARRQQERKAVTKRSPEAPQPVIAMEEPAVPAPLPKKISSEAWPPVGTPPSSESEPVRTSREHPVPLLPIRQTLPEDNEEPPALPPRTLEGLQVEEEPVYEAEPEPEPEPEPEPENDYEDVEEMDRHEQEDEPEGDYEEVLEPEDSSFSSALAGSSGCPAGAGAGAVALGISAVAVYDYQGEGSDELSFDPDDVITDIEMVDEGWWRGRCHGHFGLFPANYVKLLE
UniProt Q99871: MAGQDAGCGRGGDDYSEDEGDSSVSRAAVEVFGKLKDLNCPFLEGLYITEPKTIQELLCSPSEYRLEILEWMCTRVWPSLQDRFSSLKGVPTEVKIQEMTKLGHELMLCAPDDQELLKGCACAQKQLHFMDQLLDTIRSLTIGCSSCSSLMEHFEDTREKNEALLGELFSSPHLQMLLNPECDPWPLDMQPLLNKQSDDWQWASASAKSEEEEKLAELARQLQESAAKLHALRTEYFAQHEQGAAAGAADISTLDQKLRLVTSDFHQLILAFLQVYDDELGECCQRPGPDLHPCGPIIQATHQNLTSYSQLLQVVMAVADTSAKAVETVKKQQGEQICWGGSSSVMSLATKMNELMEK
UniProt Q9Y5Q9: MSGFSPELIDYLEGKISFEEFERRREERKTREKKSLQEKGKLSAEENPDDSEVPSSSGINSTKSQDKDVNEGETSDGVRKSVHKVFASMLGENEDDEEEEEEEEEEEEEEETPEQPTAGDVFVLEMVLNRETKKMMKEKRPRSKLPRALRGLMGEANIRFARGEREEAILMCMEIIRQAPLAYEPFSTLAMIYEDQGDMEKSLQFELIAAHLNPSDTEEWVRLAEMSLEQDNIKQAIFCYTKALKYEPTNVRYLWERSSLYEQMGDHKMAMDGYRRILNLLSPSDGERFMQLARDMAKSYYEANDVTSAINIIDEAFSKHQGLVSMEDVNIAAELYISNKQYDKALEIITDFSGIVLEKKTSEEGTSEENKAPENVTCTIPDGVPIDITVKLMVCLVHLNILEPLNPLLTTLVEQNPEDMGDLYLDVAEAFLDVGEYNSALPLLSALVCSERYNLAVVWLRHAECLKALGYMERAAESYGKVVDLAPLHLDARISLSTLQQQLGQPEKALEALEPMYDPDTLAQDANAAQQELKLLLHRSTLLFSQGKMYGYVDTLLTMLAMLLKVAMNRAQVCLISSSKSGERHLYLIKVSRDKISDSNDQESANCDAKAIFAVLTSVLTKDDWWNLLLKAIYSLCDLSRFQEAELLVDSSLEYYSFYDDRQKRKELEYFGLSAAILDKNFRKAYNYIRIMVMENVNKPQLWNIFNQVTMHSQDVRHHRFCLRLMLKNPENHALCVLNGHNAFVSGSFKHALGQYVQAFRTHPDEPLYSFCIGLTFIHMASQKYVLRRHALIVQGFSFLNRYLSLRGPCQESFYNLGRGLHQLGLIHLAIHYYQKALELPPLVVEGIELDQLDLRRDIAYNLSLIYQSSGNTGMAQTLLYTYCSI

Key:
Experiment in all cases: log2 fold change, soluble protein after heating vs DMSO (PISA); higher = thermal stabilisation; K562 lysate, 10 uM; active = over 0.2 and 3.5 SD of the protein, either way, in both replicates (recomputed)
lapatinib = compound: CS(=O)(=O)CCNCc1ccc(-c2ccc3ncnc(Nc4ccc(OCc5cccc(F)c5)c(Cl)c4)c3c2)o1 [lapatinib]
In short: (§1)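 Quantification was by TMTpro 16plex LC-MS/MS with equalised channel sums, applied to the supernatant after 21,000xg for 90 min. Samples were crude K562 extract at 1 mg/mL protein in PBS pH 7.4 with 1 mM MgCl2, treated with 10 μM compound for 30 min, heated for 3 min across 48°C-58°C, pooled and brought to 0.5% NP-40 at 4°C. Values are log-two fold changes in thermal stability relative to solvent controls, from duplicates.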

pictilisib = compound: CS(=O)(=O)N1CCN(Cc2cc3nc(-c4cccc5[nH]ncc45)nc(N4CCOCC4)c3s2)CC1 [pictilisib]
In short: as §1

crizotinib = compound: C[C@@H](Oc1cc(-c2cnn(C3CCNCC3)c2)cnc1N)c1c(Cl)ccc(F)c1Cl [crizotinib]
In short: as §1

[1] = compound: C[C@H](C1=CC=C(C=C1)C(=O)NC2=C3C=CNC3=NC=C2)N
In short: as §1

duvelisib = compound: C[C@H](Nc1ncnc2nc[nH]c12)c1cc2cccc(Cl)c2c(=O)n1-c1ccccc1 [duvelisib]
In short: as §1

gandotinib = compound: Cc1cc(Nc2cc(CN3CCOCC3)c3nc(C)c(Cc4ccc(Cl)cc4F)n3n2)n[nH]1 [gandotinib]
In short: as §1

tozasertib = compound: Cc1cc(Nc2cc(N3CCN(C)CC3)nc(Sc3ccc(NC(=O)C4CC4)cc3)n2)n[nH]1 [tozasertib]
In short: as §1

doramapimod = compound: Cc1ccc(-n2nc(C(C)(C)C)cc2NC(=O)Nc2ccc(OCCN3CCOCC3)c3ccccc23)cc1 [doramapimod]
In short: as §1

bafetinib = compound: Cc1ccc(NC(=O)c2ccc(CN3CC[C@H](N(C)C)C3)c(C(F)(F)F)c2)cc1Nc1nccc(-c2cncnc2)n1 [bafetinib]
In short: as §1

[2] = compound: Cc1cccc(CC(=O)N2CCc3c2ccc(-c2cn(C)c4ncnc(N)c24)c3F)n1
In short: as §1

nilotinib = compound: Cc1cn(-c2cc(NC(=O)c3ccc(C)c(Nc4nccc(-c5cccnc5)n4)c3)cc(C(F)(F)F)c2)cn1 [nilotinib]
In short: as §1

[3] = compound: Cc1nc(Nc2n[nH]c3c2CN(C(=O)N[C@H](CN(C)C)c2ccccc2)C3(C)C)c2sccc2n1
In short: as §1

dasatinib = compound: Cc1nc(Nc2ncc(C(=O)Nc3c(C)cccc3Cl)s2)cc(N2CCN(CCO)CC2)n1 [dasatinib]
In short: as §1

[4] = compound: Cc1ncc(-c2ccnc(Nc3ccc(S(C)(=O)=O)cc3)n2)n1C(C)C
In short: as §1

[5] = compound: Cn1cc(-c2ccc3c(c2)CCN3C(=O)Cc2cccc(C(F)(F)F)c2)c2c(N)ncnc21
In short: as §1

quisinostat = compound: Cn1cc(CNCC2CCN(c3ncc(C(=O)NO)cn3)CC2)c2ccccc21 [quisinostat]
In short: as §1

tipifarnib = compound: Cn1cncc1[C@@](N)(c1ccc(Cl)cc1)c1ccc2c(c1)c(-c1cccc(Cl)c1)cc(=O)n2C [tipifarnib]
In short: as §1

[6] = compound: NC(=O)Nc1cc(-c2cccc(F)c2)sc1C(=O)N[C@H]1CCCNC1
In short: as §1

[7] = compound: NC(=O)c1cnc(N[C@@H]2CCCC[C@@H]2N)nc1Nc1cccc(-n2nccn2)c1
In short: as §1

[8] = compound: NC1(c2ccc(-c3nc4ccn5c(=O)[nH]nc5c4cc3-c3ccccc3)cc2)CCC1
In short: as §1

Measured: log2 fold change

GYPC (UniProt P04921)
inactive: lapatinib 0.032 | pictilisib -0.048 | crizotinib 0.026 | [1] -0.008 | duvelisib -0.068 | gandotinib -0.004 | tozasertib 0.021 | doramapimod -0.047 | bafetinib 0 | [2] -0.04 | nilotinib 0.055 | [3] -0.05 | dasatinib 0.006 | [4] 0.091 | [5] 0.017 | quisinostat -0.026 | tipifarnib 0.216 | [6] 0.136 | [7] 0.03 | [8] -0.005

GSTO1 (UniProt P78417)
inactive: lapatinib 0.013 | pictilisib 0.013 | crizotinib 0.094 | [1] 0.098 | duvelisib -0.006 | gandotinib -0.049 | tozasertib 0.022 | doramapimod -0.05 | bafetinib 0.062 | [2] -0.113 | nilotinib 0.014 | [3] 0.006 | dasatinib 0.04 | [4] -0.002 | [5] 0.014 | quisinostat 0.087 | tipifarnib 0.031 | [6] -0.031 | [7] 0.002 | [8] 0.059

HAUS3 (UniProt Q68CZ6)
inactive: lapatinib -0.011 | pictilisib -0.001 | crizotinib -0.084 | [1] 0.013 | duvelisib -0.042 | gandotinib -0.059 | tozasertib 0.014 | doramapimod -0.034 | bafetinib -0.11 | [2] 0.079 | nilotinib 0.02 | [3] -0.027 | dasatinib -0.075 | [4] 0.008 | [5] 0.003 | quisinostat -0.059 | tipifarnib -0.045 | [6] 0.017 | [7] -0.015 | [8] -0.038

HACD3 (UniProt Q9P035)
inactive: lapatinib -0.067 | pictilisib -0.039 | crizotinib -0.032 | [1] -0.058 | duvelisib -0.009 | gandotinib -0.01 | tozasertib -0.008 | doramapimod -0.003 | bafetinib -0.088 | [2] 0.122 | nilotinib 0.023 | [3] -0.09 | dasatinib -0.041 | [4] -0.007 | [5] 0.017 | quisinostat -0.048 | tipifarnib -0.04 | [6] 0.013 | [7] 0.01 | [8] -0.023

Quoted from above (two entries):
HAUS3 (UniProt Q68CZ6)
inactive: lapatinib -0.011 | pictilisib -0.001 | crizotinib -0.084 | [1] 0.013 | duvelisib -0.042 | gandotinib -0.059 | tozasertib 0.014 | doramapimod -0.034 | bafetinib -0.11 | [2] 0.079 | nilotinib 0.02 | [3] -0.027 | dasatinib -0.075 | [4] 0.008 | [5] 0.003 | quisinostat -0.059 | tipifarnib -0.045 | [6] 0.017 | [7] -0.015 | [8] -0.038

HACD3 (UniProt Q9P035)
inactive: lapatinib -0.067 | pictilisib -0.039 | crizotinib -0.032 | [1] -0.058 | duvelisib -0.009 | gandotinib -0.01 | tozasertib -0.008 | doramapimod -0.003 | bafetinib -0.088 | [2] 0.122 | nilotinib 0.023 | [3] -0.09 | dasatinib -0.041 | [4] -0.007 | [5] 0.017 | quisinostat -0.048 | tipifarnib -0.04 | [6] 0.013 | [7] 0.01 | [8] -0.023

More records follow:

HCLS1 (UniProt P14317)
inactive: lapatinib -0.013 | pictilisib 0.009 | crizotinib 0.073 | [1] 0.026 | duvelisib 0.002 | gandotinib -0.001 | tozasertib 0.009 | doramapimod 0.008 | bafetinib 0.032 | [2] -0.044 | nilotinib -0.022 | [3] 0.006 | dasatinib 0.022 | [4] 0.006 | [5] 0.018 | quisinostat 0.044 | tipifarnib 0.022 | [6] -0.036 | [7] -0.016 | [8] 0.043

HAUS7 isoform 2 (UniProt Q99871)
inactive: lapatinib 0.022 | pictilisib 0.012 | crizotinib -0.053 | [1] 0.102 | duvelisib -0.063 | gandotinib -0.156 | tozasertib -0.113 | doramapimod 0.072 | bafetinib -0.139 | [2] 0.015 | nilotinib 0.021 | [3] 0.007 | dasatinib 0.015 | [4] 0.055 | [5] -0.026 | quisinostat -0.037 | tipifarnib -0.011 | [6] 0.063 | [7] 0.024 | [8] -0.047

H2AFX (UniProt P16104)
inactive: lapatinib 0.039 | pictilisib 0.027 | crizotinib -0.054 | [1] -0.035 | duvelisib -0.006 | gandotinib 0.011 | tozasertib 0.013 | doramapimod 0.018 | bafetinib 0.048 | [2] 0.098 | nilotinib -0.013 | [3] 0 | dasatinib 0.02 | [4] -0.029 | [5] -0.008 | quisinostat 0.007 | tipifarnib 0.007 | [6] -0.015 | [7] 0.04 | [8] 0.008

GTF3C3 (UniProt Q9Y5Q9)
inactive: lapatinib -0.043 | pictilisib -0.051 | crizotinib -0.093 | [1] -0.108 | duvelisib 0.017 | gandotinib -0.037 | tozasertib 0.009 | doramapimod 0.012 | bafetinib -0.045 | [2] 0.084 | nilotinib 0.035 | [3] 0.052 | dasatinib 0.008 | [4] -0.026 | [5] 0.009 | quisinostat -0.134 | tipifarnib -0.057 | [6] 0.031 | [7] 0.009 | [8] -0.084
